Experimental data reported in US20260231939A1, “ARTHROPOD CONTROL COMPOSITIONS” (Firmenich SA, priority 2022, published 2026).
For part of these data: At least one read-out could not be matched to a standard name with certainty. Some results were stated once for a whole list of compounds, not compound by compound.

Key:
Ixodes ricinus = assay: Warm Plate Assay for ticks; conditions: concentration of 0.04%
Aedes aegypti = assay: Warm Body assay, mosquito landings on the baited warm body; type: in vivo; conditions: β- and ε-lactones, 0.4 mg/mL
Experimental: The controlling effect according to the present invention was assessed using an adapted Warm Body assay as defined in Kröber T, Kessler S, Frei J, Bourquin M, Guerin P M. 2010. J Am Mosq Control Assoc. 26:381-386. In this in-vitro assay the number of mosquito landing on a warm body, simulating an attractive host treated with the tested stimuli, was measured in order to assess the repellence effect.
The published protocol has been adapted as the switch from Anopheles gambiae to Ae. aegypti led to a decrease of mosquitoes placed in the tested cage due to the size difference (i.e. 30 mosquitoes instead of 50) and to an increase of lighting since Ae. aegypti is a diurnal mosquitoes (i.e. 150 lux instead of 4 lux).
On the sandblasted glass Petri dish covering the warm body (28.3 cm^2), 100 μL of the compounds diluted at different concentrations in ethanol was applied. The number of mosquito landing on the warm body was counted for each stimulus. Number of landings on pure ethanol (solvent) control treatment was used to normalize the data and calculate the percentage of repellence.

Compound	ticks repelled (Ixodes ricinus) [%]	Percentage of repellence of mosquitoes landing on the warm body (Aedes aegypti) [%]
CCC=CCC1CCCC(=O)O1 (stereo not drawn) [6-pent-2-enyloxan-2-one]	> 75	–
CC(C)C1OC(=O)C1(C)C (stereo not drawn) [3,3-dimethyl-4-propan-2-yloxetan-2-one]	–	38
CC=CCCC1CCCC(=O)O1 (stereo not drawn) [6-pent-3-enyloxan-2-one]	> 75	–
